Reference: US5356887A, “Pharmaceutical compositions containing insoluble calcium salts of amino-hydroxybutylidene bisphoshonic acids” (Merck & Co., Inc., priority 1993, dated 1994)
Counter-ions that a name gives are not always drawn. Like-named read-outs stand apart in the source and are kept apart here.

Columns and labels:
[1] = test system: immobilized femur; conditions: suspension vs solution of the (ABP)Na salt
Description: (§1) On day 0 all rats underwent surgery whereby the sciatic nerve of the right hind limb was severed. Ten days following immobilization surgery, the rats were sacrificed and hind limbs removed. The femora were defleshed, maximum femoral length of both femora measured and then placed in a muffle furnace at 700° C. for 24 hours.
(§2) mg Diff = difference in ash weight between the intact femur and the
(§3) se = standard error of the mean
(§4) % Bone Loss = ash weight difference between the intact femur and the
(§5) immobilized femur divided by the ash weight of the intact femur

[2] = test system: immobilized femur; conditions: suspension vs solution of the (ABP)Na salt; remark: listed apart in the source
Description: Immobilization was produced by unilateral hind limb sciatic neurectomy. Ten days after surgery the rats were sacrificed, hind limbs removed, and the femora ashed at 700° C. for 24 hours. Ash weight was determined and the difference between the ash weight of the intact limb and immobilized limb calculated and expressed as the mg difference. Per cent difference was calculated as the % difference in ash weight between the intact and immobilized limb.
as §2, §3, §4, §5

[3] = test system: site of injection; conditions: subcutaneous, 1.0 mg P/ml, relative to (ABP)Na solution
Description: as §1

[4] = in vivo, sc
[5] = test system: soft tissues; conditions: in vivo

With NCCCC(O)(P(=O)(O)O)P(=O)(O)O [(ABP)2 Ca, di[(4-amino-1-hydroxybutylidene)-1,1-bisphosphonic acid] monocalcium salt] as the compound, how does the “% bone loss relative to (ABP)Na, in words” value [1] read?
The value was “less”.

What about the “% bone loss relative to (ABP)Na, in words” value [2] of the same compound?
The value was “comparable”.

What about the “Tendency to induce irritation at the site of injection” value [3] of the same compound?
The value was “lower tendency to induce irritation at the site of injection relative to the solution of the (ABP)Na salt”.

What does the source list for NCCCC(O)(P(=O)(O)O)P(=O)(O)O [(ABP)3 Ca4, tri[(4-amino-1-hydroxybutylidene)-1,1-bisphosphonic acid] tetracalcium salt]?
% bone loss relative to (ABP)Na, in words [1]: less; Tendency to induce irritation at the site of injection [3]: lower tendency to induce irritation at the site of injection relative to the solution of the (ABP)Na salt

With NCCCC(O)(P(=O)(O)O)P(=O)(O)O [(ABP)Ca, [(4-amino-1-hydroxybutylidene)-1,1-bisphosphonic acid] monocalcium salt] as the compound, how does the “% bone loss relative to (ABP)Na, in words” value [2] read?
The value was “comparable”.

What about the “Uptake by the liver and excretion by the kidneys” value [4] of the same compound?
Its value is “lower than in the case of the soluble sodium ASP solution”.

And the “Propensity of causing pain, irritation and damage to soft tissues” value [5]?
The value was “dramatically lower”.
